{
  "sequences": {"note": "The chains behind the UniProt entries cited, without tags or fusion partners.", "UniProt A8HYP5": "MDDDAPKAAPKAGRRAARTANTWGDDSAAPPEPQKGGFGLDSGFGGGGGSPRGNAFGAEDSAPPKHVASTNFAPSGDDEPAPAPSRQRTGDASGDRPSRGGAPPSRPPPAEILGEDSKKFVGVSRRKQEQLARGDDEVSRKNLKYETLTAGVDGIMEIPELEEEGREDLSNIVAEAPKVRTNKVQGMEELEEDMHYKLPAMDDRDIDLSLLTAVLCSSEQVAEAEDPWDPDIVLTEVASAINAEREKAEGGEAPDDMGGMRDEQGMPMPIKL"},
  "source": "paper doi:10.1101/2022.02.06.479262",
  "target": "T1, IFT25-HA-GFP (C. reinhardtii) (UniProt B8LIX8)",
  "T1 sequence": "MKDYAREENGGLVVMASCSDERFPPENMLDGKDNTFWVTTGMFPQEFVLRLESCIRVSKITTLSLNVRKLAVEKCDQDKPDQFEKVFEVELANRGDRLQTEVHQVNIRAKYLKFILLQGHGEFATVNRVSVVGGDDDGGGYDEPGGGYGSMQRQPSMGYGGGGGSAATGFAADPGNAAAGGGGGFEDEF",
  "assay": "co-IP",
  "note": "These are yes or no findings as the source states them, for the method shown. Binding seen in cells or lysates may run through a third protein. Some entries that bind do so weakly or less than the wild type. Where a sequence is shown, tags or fusion partners need not be part of it.",
  "data": [
    {"substance": "IFT43 (from UniProt A8HYP5 1-272)", "values": [
      {"measurement": "binding", "result": "binds"}
    ]}
  ]
}
